Laboratory results from paper PMC8517087, “Analysis of M4 Transmembrane Segments in NMDA Receptor Function: A Negative Allosteric Modulatory Site at the GluN1 M4 is Determining the Efficiency of Neurosteroid Modulation” (Frontiers in Pharmacology, 2021).
No constants are given. Whether binding was seen depends on the method and setting. In cells and extracts the contact can be indirect. Some binding calls cover weakened binding; strength is not graded here. Values belong to the substance of their own block, whether it stands above or below them.

What was measured:
[1] = target: GluN2A^M560C (mouse) (UniProt P35436); test: cross-linking; disulfide bond between cysteines introduced in the M4^N1 fragment and in GluN2A, co-expressed with GluN1^ΔM4 in oocytes; surface proteins biotinylated and isolated on streptavidin; denaturing SDS-PAGE without or with DTT; Western blot against the GluN1 CTD
[2] = target: C-terminal truncated GluN2A^1–929 construct, His-tagged (mouse) (UniProt P35436); test: pull-down; metabolic (35S) methionine labelling of GluN2A*-His and GluN1^ΔM4 in oocytes, in the absence and presence of M4^N1; the purification step is not told for this figure (Supplementary Figure S1)
[3] = target: GluN2A^F637C (mouse) (UniProt P35436); test: cross-linking; disulfide bond between cysteines introduced in the M4^N1 fragment and in GluN2A, co-expressed with GluN1^ΔM4 in oocytes; surface proteins biotinylated and isolated on streptavidin; denaturing SDS-PAGE without or with DTT; Western blot against the GluN1 CTD

binding [1]: binds
Substance: M4^N1-F817C, isolated GluN1 M4 fragment (GluN1^802–925) with F817C (from UniProt P35439 802-925) (domain or fragment)

binding [2]: binds
Substance: GluN1^1–802, M4-deleted GluN1 subunit (from UniProt P35439 19-802) (domain or fragment)

binding [3]: binds
Substance: M4^N1-M813C, isolated GluN1 M4 fragment (GluN1^802–925) with M813C (from UniProt P35439 802-925) (domain or fragment)
